Experiment [1] has as its target Flag-TALDO1 (transaldolase 1), wild type, in NPC cells (UniProt P37837). The experiment in a line: co-IP; NPC cells transfected with Flag-TALDO1; exogenous Flag-TALDO1 and endogenous HDAC6; IP and western blot. A general note: Immunoblotting shows a protein as a band on a membrane.
For experiment [2], the target named is Flag-TALDO1 (transaldolase 1), wild type (UniProt P37837). The experiment in a line: co-IP; 293T cells transfected with both tagged proteins for 48 h; lysate in IP buffer with protease inhibitors, 2 μg antibody overnight at 4 °C, magnetic beads, western blot.
Experiment [3] deals with Flag-TALDO1 K7R (mimicking deacetylation) (UniProt P37837). Described as above.
Experiment [4] addresses TALDO1 (transaldolase 1), endogenous (human (endogenous; cell line not named, all cell lines of the paper are human)) (UniProt P37837). Nature of the experiment: co-IP; endogenous proteins, IP and western blot; cell line not named.

By UniProt entry, the sequences of proteins in these tests, tags left out.
UniProt Q9UBN7: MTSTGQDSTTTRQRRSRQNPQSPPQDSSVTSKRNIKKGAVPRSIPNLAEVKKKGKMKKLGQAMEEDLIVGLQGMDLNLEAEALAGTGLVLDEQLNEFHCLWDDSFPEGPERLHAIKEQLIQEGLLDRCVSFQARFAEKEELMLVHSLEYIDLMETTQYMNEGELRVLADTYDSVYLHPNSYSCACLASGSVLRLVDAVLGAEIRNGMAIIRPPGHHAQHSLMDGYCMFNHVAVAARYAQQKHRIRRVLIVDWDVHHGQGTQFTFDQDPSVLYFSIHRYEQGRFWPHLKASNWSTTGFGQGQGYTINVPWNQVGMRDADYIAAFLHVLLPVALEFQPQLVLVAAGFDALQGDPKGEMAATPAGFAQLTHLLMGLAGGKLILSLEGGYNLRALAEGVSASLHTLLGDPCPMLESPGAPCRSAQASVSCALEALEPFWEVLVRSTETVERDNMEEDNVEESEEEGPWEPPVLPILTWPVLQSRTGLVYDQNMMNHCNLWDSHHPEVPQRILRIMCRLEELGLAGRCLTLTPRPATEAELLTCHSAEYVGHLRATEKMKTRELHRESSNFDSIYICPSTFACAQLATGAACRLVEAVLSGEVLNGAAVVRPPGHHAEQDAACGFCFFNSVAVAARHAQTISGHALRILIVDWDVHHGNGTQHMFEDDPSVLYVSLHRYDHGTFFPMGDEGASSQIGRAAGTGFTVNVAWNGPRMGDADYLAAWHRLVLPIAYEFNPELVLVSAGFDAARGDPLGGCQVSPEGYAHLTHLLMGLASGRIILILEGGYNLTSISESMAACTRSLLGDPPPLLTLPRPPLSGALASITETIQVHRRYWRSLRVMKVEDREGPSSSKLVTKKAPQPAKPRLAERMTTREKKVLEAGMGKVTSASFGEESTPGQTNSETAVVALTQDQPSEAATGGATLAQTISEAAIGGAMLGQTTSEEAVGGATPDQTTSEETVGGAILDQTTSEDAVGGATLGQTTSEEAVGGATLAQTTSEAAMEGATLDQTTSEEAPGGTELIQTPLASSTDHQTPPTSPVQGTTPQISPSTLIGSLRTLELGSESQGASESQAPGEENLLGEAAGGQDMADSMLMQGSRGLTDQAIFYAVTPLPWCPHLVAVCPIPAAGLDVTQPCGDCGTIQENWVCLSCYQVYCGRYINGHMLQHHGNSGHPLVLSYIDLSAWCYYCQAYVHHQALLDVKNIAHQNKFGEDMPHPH
UniProt Q9HCE7: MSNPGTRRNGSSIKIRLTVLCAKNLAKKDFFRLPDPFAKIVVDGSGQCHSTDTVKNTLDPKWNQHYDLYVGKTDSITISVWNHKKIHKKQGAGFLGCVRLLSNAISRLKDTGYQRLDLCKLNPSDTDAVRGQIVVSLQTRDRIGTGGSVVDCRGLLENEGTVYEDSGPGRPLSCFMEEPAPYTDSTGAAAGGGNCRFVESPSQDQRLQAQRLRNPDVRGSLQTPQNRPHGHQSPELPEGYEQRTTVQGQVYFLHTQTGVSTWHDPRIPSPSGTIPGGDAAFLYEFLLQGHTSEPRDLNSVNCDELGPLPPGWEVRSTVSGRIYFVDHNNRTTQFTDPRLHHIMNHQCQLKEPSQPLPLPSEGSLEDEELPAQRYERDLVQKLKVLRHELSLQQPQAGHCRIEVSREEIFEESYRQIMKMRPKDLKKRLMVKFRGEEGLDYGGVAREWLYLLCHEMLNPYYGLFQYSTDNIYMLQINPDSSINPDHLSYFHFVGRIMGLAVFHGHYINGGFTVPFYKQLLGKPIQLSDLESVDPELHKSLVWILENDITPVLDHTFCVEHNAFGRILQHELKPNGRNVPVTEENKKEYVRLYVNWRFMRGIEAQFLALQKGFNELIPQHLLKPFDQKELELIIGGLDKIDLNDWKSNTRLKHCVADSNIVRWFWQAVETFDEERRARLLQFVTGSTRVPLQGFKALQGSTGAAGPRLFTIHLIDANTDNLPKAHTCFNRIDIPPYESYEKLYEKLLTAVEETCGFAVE
UniProt Q09472: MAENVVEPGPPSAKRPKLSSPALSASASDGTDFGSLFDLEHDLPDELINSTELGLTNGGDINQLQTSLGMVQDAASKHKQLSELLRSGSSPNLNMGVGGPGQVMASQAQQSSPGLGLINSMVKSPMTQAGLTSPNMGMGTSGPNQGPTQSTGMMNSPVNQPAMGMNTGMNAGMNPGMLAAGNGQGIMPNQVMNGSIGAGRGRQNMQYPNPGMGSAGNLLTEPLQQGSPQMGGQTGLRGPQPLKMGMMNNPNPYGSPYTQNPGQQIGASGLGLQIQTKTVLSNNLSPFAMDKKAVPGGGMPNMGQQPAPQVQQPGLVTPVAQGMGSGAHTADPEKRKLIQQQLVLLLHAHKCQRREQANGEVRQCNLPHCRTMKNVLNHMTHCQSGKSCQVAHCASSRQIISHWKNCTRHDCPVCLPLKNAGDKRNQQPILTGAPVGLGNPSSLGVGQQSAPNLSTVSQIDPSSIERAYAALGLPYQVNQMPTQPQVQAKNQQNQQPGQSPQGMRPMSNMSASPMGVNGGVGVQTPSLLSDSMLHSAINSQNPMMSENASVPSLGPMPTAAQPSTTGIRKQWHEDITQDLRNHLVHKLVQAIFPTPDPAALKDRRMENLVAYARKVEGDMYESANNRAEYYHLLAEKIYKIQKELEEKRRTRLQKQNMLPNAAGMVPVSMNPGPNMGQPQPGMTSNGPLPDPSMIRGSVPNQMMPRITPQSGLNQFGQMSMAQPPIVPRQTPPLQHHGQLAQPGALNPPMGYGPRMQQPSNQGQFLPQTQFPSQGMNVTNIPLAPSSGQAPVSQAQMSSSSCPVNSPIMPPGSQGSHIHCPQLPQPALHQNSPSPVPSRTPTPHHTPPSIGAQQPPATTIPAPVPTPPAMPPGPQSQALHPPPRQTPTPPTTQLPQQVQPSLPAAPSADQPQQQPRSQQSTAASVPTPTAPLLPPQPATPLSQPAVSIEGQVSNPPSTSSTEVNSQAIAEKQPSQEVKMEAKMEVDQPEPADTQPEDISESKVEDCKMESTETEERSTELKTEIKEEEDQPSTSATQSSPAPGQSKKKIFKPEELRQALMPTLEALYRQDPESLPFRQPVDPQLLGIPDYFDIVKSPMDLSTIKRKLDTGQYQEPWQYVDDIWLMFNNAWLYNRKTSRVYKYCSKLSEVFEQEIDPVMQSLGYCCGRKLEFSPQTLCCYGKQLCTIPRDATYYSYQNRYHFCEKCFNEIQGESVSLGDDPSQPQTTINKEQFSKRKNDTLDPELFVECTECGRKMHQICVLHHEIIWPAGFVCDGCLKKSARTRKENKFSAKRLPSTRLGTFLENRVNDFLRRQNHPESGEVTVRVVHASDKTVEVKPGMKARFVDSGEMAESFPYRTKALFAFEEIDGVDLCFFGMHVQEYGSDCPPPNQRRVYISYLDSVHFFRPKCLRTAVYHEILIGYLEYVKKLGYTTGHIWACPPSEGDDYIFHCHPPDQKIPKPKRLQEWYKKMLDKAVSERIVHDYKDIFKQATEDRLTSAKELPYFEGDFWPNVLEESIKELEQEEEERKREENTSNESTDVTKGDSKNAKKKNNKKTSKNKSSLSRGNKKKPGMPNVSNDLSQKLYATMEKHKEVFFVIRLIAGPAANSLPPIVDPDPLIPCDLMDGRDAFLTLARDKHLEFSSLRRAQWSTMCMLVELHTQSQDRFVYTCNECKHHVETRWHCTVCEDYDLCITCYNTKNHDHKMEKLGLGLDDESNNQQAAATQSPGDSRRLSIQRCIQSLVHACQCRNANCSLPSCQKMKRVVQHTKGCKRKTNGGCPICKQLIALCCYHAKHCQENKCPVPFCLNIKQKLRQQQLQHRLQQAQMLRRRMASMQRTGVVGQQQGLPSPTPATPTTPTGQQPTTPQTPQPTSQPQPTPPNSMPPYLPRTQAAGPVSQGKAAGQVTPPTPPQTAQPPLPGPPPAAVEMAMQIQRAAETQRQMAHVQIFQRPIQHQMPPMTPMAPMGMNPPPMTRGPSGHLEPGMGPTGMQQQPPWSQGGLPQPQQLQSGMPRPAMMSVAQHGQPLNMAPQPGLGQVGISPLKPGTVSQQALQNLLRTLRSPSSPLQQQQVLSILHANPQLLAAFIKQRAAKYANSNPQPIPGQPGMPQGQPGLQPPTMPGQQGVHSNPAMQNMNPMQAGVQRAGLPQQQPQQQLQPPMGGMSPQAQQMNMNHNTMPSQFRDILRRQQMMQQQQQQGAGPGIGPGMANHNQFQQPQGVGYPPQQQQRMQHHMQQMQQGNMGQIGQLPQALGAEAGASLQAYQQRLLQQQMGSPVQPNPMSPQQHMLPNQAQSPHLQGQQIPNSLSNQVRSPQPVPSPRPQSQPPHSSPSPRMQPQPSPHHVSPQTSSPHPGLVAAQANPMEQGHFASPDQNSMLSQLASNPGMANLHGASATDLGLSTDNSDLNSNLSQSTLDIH

No constants are given. Whether binding was seen depends on the method and setting. Binding seen in cells or lysates may run through a third protein. Some entries that bind do so weakly or less than the wild type. For some of these results: Sequences can lack the tags named with a protein.

Turning to “HDAC6, endogenous in NPC cells (from UniProt Q9UBN7 1-1215) (enzyme)”, the binding entry in experiment [1] is “binds”.

For “His-SMURF1 (from UniProt Q9HCE7 1-757) (enzyme)”, the binding result in experiment [2] and in experiment [3] was “binds” in each case.

For the substance “His-tagged HDAC5 (from UniProt Q9UQL6 1-1122) (enzyme)”, the binding entry in experiment [2] is listed as “binds”.

Take “His-tagged HDAC6 (from UniProt Q9UBN7 1-1215) (enzyme)”: the binding result in experiment [2] is “binds”.

“Myc-p300 (from UniProt Q09472 1-2414) (enzyme)”: the binding entry in experiment [2] is given as “binds”.

With “p300, endogenous (from UniProt Q09472 1-2414) (enzyme)”, in experiment [4], the binding entry is recorded as “binds”.

(Values after publication PMC12540763.)
